Out of some 330,000 compounds screened, about 610 (0.18%) were called active. Inconclusive means that the source gave no clear call. Such entries were picked first, then a sample of the others. Calls come from the whole dose curve. A potency beside an inconclusive call is a rough fit, not a confirmed value.
assay: qHTS of Yeast-based Assay for SARS-CoV PLP; note: nearly all actives have a fitted effect of over 55% in size; conditions: S. cerevisiae expressing SARS-CoV PLpro; Potency: growth rescue; series mostly up to 32.9 µM
Potency is the fitted concentration of half-maximal effect.

**Q.** With `CC(=O)C1=C(O)C(=O)N(c2ccc(O)cc2)C1c1ccc(Cl)cc1` (centres undefined) as the compound, how does the Potency read?
**A.** inconclusive: 4.47 µM [activator, partial curve]

**Q.** For `COc1ccc(C(=O)Nc2ccc3nc(N4CCCCC4)cc(C)c3c2)cc1OC`, which Potency is on record?
**A.** inconclusive: 22.4 µM [activator, single point]

**Q.** Which Potency does the source give for `CCOc1ccc(/C=N/NC(=O)c2ccc(O)cc2)cc1CN1CC2CC(C1)c1cccc(=O)n1C2` (centres undefined) here?
**A.** inconclusive: 3.16 µM [activator, single point]

**Q.** With `O=C(NCc1ccccc1F)C1CCCN1C(=O)Nc1cccc(F)c1` (centres undefined) as the compound, how does the Potency read?
**A.** inconclusive: 5.01 µM [activator, partial curve, poor fit]

**Q.** For `COc1c(C(=O)NNC(=O)c2ccccc2Cl)csc1Br`, which Potency is on record?
**A.** inactive

**Q.** With `CCOC(=O)c1c(OCCO)noc1N` as the compound, how does the Potency read?
**A.** inactive

**Q.** For `CC(C)CN1CCC(C(=O)NCC2CCCO2)CC1` (centres undefined), which Potency is on record?
**A.** inactive

**Q.** With `CC1=C(C(=O)N2CCOCC2)C(c2ccc(Cl)cc2)NC(=S)N1` (centres undefined) as the compound, how does the Potency read?
**A.** inconclusive: 2 µM [activator, partial curve]

**Q.** For `Cc1ccccc1-n1nc(CSc2nc3ccccc3[nH]2)c(-c2ccccc2)c1N`, which Potency is on record?
**A.** inactive

**Q.** With `CC(C)(C)[C@@H]1C=C(C(=O)O)[C@H](c2ccc(Cl)cc2)N1S(=O)(=O)c1ccccc1` as the compound, how does the Potency read?
**A.** inconclusive: 3.98 µM [activator, single point]

**Q.** With `Cc1ccc(O)c(CNc2cnc3ccccc3c2)c1` as the compound, how does the Potency read?
**A.** inconclusive: 4.47 µM [activator, single point]

**Q.** With `C#CC[N+]1(CC#Cc2ccc(C)cc2)CCCCC1` as the compound, how does the Potency read?
**A.** active: 20 µM

**Q.** Which Potency does the source give for `COc1cc(NC(=O)CSc2nc3[nH]ncc3c(=O)n2-c2ccc(Cl)cc2)cc(OC)c1` here?
**A.** inconclusive: 3.16 µM [activator, single point]

**Q.** With `Cn1c(CO)cnc1-c1ccccc1` as the compound, how does the Potency read?
**A.** inactive

**Q.** Which Potency does the source give for `O=C(O)COc1ccccc1` here?
**A.** inactive

**Q.** Which Potency does the source give for `O=C(CN1CCCc2ccccc21)N/N=C/c1ccc(O)cc1O` here?
**A.** inconclusive: 0.501 µM [activator, full curve, poor fit]

**Q.** With `O=C(Nc1nnc(C2CC2)s1)C1Cc2ccccc2CN1S(=O)(=O)c1cccs1` (centres undefined) as the compound, how does the Potency read?
**A.** inconclusive: 20 µM [activator, single point]

**Q.** Which Potency does the source give for `Cc1ccccc1N1CCN(Cc2ccc3c(c2)OCO3)CC1` here?
**A.** inconclusive: 0.355 µM [activator, full curve]

**Q.** For `CC1CCN(C(=O)C(=O)c2cn(CC(=O)N3CCCC3)c3ccccc23)CC1`, which Potency is on record?
**A.** inconclusive: 20 µM [activator, single point]

**Q.** Which Potency does the source give for `CC(C(=O)N1CCCCCC1)N(c1ccc(Cl)cc1)S(C)(=O)=O` (centres undefined) here?
**A.** inconclusive: 17.8 µM [activator, single point]

**Q.** With `COc1ccc(/C=N/NC(=O)CN(CCc2ccccc2)S(=O)(=O)c2ccc(NC(C)=O)cc2)cc1OC` as the compound, how does the Potency read?
**A.** active: 3.55 µM

**Q.** For `CC(=O)C1=C(C)NC(SCC(=O)c2ccc(Cl)cc2)=C(C#N)C1c1ccco1` (centres undefined), which Potency is on record?
**A.** inconclusive: 2.82 µM [activator, single point]

**Q.** For `CC(=O)Nc1cccc(NC(=O)c2cc(-c3ccccn3)nc3ccc(Cl)cc23)c1`, which Potency is on record?
**A.** inconclusive: 2 µM [activator, full curve, poor fit]

**Q.** Which Potency does the source give for `CCCOc1ccc(C2Nc3cccc4cccc(c34)N2)cc1` here?
**A.** inactive

**Q.** Which Potency does the source give for `CC(NC(=O)C(C)N1CCN(S(=O)(=O)c2ccccc2)CC1)c1ccccc1` (centres undefined) here?
**A.** inactive

**Q.** Which Potency does the source give for `N#Cc1cc(C#N)c(N2CCN(c3cccc(Cl)n3)CC2)nc1N` here?
**A.** inconclusive: 3.98 µM [activator, single point]

**Q.** Which Potency does the source give for `COc1ccc(NC(=O)c2ccccn2)cc1` here?
**A.** inactive

**Q.** Which Potency does the source give for `Cc1nc(-c2cccc(NC(=O)c3ccco3)c2)cs1` here?
**A.** inconclusive: 12.6 µM [activator, single point]

**Q.** Which Potency does the source give for `Cc1ccc(-c2csc3ncnc(NCCN4CCOCC4)c23)cc1` here?
**A.** inactive

**Q.** For `Cc1cccc(C(=O)O/N=C(\N)c2ccccn2)c1`, which Potency is on record?
**A.** inactive

**Q.** For `Cc1cc2[nH]c3c(c[n+](C)c4ccccc34)c2cc1C`, which Potency is on record?
**A.** inactive

**Q.** With `COc1ccc(F)cc1C(=O)C1CCCN(C(=O)c2ccccc2N(C)C)C1` (centres undefined) as the compound, how does the Potency read?
**A.** inactive

**Q.** Which Potency does the source give for `CCC(=O)Nc1ccc(-c2ccc(N3CCCCC3)nn2)cc1` here?
**A.** inconclusive: 4.47 µM [activator, full curve]

**Q.** With `CCOc1ccccc1NC(=O)CCn1c(=O)oc2ccccc21` as the compound, how does the Potency read?
**A.** inactive

**Q.** With `N#Cc1c(N)nc2c(c1-c1ccc(Br)s1)CCCC2` as the compound, how does the Potency read?
**A.** inconclusive: 20 µM [activator, single point]

**Q.** For `CC(=O)Nc1ccc(NC(=O)COC(=O)/C(=C/c2ccccc2)n2nnnc2C)cc1`, which Potency is on record?
**A.** inconclusive: 3.98 µM [activator, single point]

**Q.** For `COc1cc(NC(=S)NCc2cccnc2)c(OC)cc1Cl`, which Potency is on record?
**A.** inactive

**Q.** For `CN(Cc1ccccc1)Cc1ccccc1OC(=O)N(C)C`, which Potency is on record?
**A.** inconclusive: 20 µM [activator, single point]

**Q.** For `CCOP(=O)(OCC)C(NC(=O)Nc1ccccc1)c1ccccc1` (centres undefined), which Potency is on record?
**A.** inconclusive: 20 µM [activator, single point]

**Q.** For `COC(=O)c1ccc(C2/C(=C(\O)c3ccc4c(c3)OCCO4)C(=O)C(=O)N2c2nnc(C)s2)cc1` (centres undefined), which Potency is on record?
**A.** inconclusive: 2.24 µM [activator, single point]

**Q.** With `Cc1ccccc1C(=O)Nc1ccc(C(=O)NNC(=O)CCCOc2ccc(Cl)cc2Cl)cc1` as the compound, how does the Potency read?
**A.** inconclusive: 2.51 µM [activator, single point]

**Q.** Which Potency does the source give for `COc1ccccc1-c1nnc(NC(=O)C(C)Sc2nncn2C)s1` (centres undefined) here?
**A.** inactive

**Q.** With `CCOc1ccc(C(=O)NCC(=O)OCc2c(F)cccc2Cl)cc1OCC` as the compound, how does the Potency read?
**A.** inconclusive: 0.355 µM [activator, full curve, poor fit]

**Q.** For `O=C(CN1C(=O)c2ccccc2S1(=O)=O)Nc1ccc(S(=O)(=O)N2CCCC2)cc1`, which Potency is on record?
**A.** inconclusive: 15.8 µM [activator, single point]

**Q.** With `O=S(=O)(c1ccc(Oc2ncnc3scc(-c4ccccc4)c23)cc1)N1CCOCC1` as the compound, how does the Potency read?
**A.** inconclusive: 12.6 µM [activator, single point]

**Q.** With `CCOC(=O)C1CCCN(C(=O)Cn2nc(CC)n3c(cc4sccc43)c2=O)C1` (centres undefined) as the compound, how does the Potency read?
**A.** inconclusive: 3.55 µM [activator, single point]

**Q.** With `CCOC(=O)c1ccccc1OCc1cc(/C=N/n2cnnc2)ccc1OC` as the compound, how does the Potency read?
**A.** inconclusive: 4.47 µM [activator, single point]

**Q.** With `Cc1ccc(C)c(CN2C(=O)C3CCCN3c3ccc(S(=O)(=O)N4CCOCC4)cc32)c1` (centres undefined) as the compound, how does the Potency read?
**A.** inconclusive: 4.47 µM [activator, single point]

**Q.** For `CCCCN(CC)CCNC(=O)Cn1cc2c(n1)-c1c(oc(C(=O)N3CCCC3)c1C)CC2`, which Potency is on record?
**A.** inconclusive: 4.47 µM [activator, single point]

**Q.** Which Potency does the source give for `NNc1nc2sc3c(c2c(=O)n1Cc1ccccc1)CCC3` here?
**A.** inactive

**Q.** For `COc1cc(/C=N/n2c(SC)nnc(C(C)(C)C)c2=O)ccc1O`, which Potency is on record?
**A.** active: 15.8 µM

**Q.** For `CNC(=O)NC1CCCc2ccccc21` (centres undefined), which Potency is on record?
**A.** inconclusive: 20 µM [activator, single point]

**Q.** With `COc1ccc(N2CCN(CCCNC(=O)Cn3c(=O)c4cccn4c4ccccc43)CC2)cc1` as the compound, how does the Potency read?
**A.** inconclusive: 11.2 µM [activator, single point]

**Q.** For `Cc1cc(C)cc(NC(=O)C(=O)NCc2ccccn2)c1`, which Potency is on record?
**A.** inconclusive: 20 µM [activator, single point]

**Q.** Which Potency does the source give for `Cc1ccc(C)c(CSc2nnc(CCN)o2)c1` here?
**A.** inconclusive: 0.398 µM [activator, full curve, poor fit]

**Q.** With `CC(=Nc1ccccc1)C1=C(O)COC1=O` as the compound, how does the Potency read?
**A.** inconclusive: 12.6 µM [activator, single point]

**Q.** Which Potency does the source give for `Cc1ccc(F)c(NC(=O)CCOc2ccccc2C)c1` here?
**A.** inconclusive: 11.2 µM [activator, partial curve]

**Q.** With `Cc1cccc(Sc2c([N+](=O)[O-])ncn2C)c1` as the compound, how does the Potency read?
**A.** inactive

**Q.** For `Cc1nc2ccccc2n1CC(=O)NCc1ccccc1`, which Potency is on record?
**A.** inactive

**Q.** With `CNc1cnn(-c2ccc(C)cc2)c(=O)c1Cl` as the compound, how does the Potency read?
**A.** inconclusive: 4.47 µM [activator, single point]

**Q.** With `C=CCNC(=O)c1ccc(C(=O)c2ccccc2)cc1` as the compound, how does the Potency read?
**A.** inactive

**Q.** For `O=C(NC(=S)N1CCOCC1)C12CCC3CC(CC(C3)C1)C2`, which Potency is on record?
**A.** inconclusive: 17.8 µM [activator, single point]

**Q.** For `O=C(CN(Cc1ccc(F)cc1)C(=O)Cn1nnc2ccccc21)NCC1CCCO1` (centres undefined), which Potency is on record?
**A.** inactive

**Q.** Which Potency does the source give for `Cc1c(C#N)c(NC(=O)CCl)n(Cc2ccccc2)c1C` here?
**A.** inactive

**Q.** Which Potency does the source give for `COC(=O)C1=C(c2ccc(-c3ccccc3)c(F)c2)C[C@@H]2CC[C@H]1N2C(=O)NC1CC1` here?
**A.** inconclusive: 3.55 µM [activator, single point]

**Q.** For `COC(=O)C1=C(c2ccc(C(C)=O)cc2)C[C@@H]2CC[C@H]1N2C(=O)N1CCC(O)(c2ccc(Cl)cc2)CC1`, which Potency is on record?
**A.** inactive

**Q.** Which Potency does the source give for `O=C1OCCN1C(=O)[C@H]1[C@H](c2ccccc2)C(c2cccc(Cl)c2)=NN1c1ccccc1` here?
**A.** inconclusive: 20 µM [activator, single point]

**Q.** With `CC(C)C1Oc2ccccc2N(CC(=O)N(Cc2ccccn2)CC2CCCO2)C1=O` (centres undefined) as the compound, how does the Potency read?
**A.** active: 1.78 µM

**Q.** Which Potency does the source give for `CCC(Sc1nc(=O)cc(N)n1-c1ccccc1)C(=O)Nc1cc(C)on1` (centres undefined) here?
**A.** inconclusive: 3.55 µM [activator, single point]

**Q.** Which Potency does the source give for `Cc1cc(C)nc(SCC(=O)c2ccc(F)cc2)n1` here?
**A.** inactive

**Q.** With `Cc1cc2c(cc1S(=O)(=O)NCCc1ccc(Cl)cc1)OCC(=O)N2` as the compound, how does the Potency read?
**A.** inconclusive: 20 µM [activator, single point]

**Q.** For `C/C(=N\NC(=O)c1ccn(C)n1)c1ccc(NC(=O)C2CCC2)cc1`, which Potency is on record?
**A.** inconclusive: 3.16 µM [activator, full curve, poor fit]

**Q.** Which Potency does the source give for `COc1ccc([N+](=O)[O-])cc1NCc1cccc([N+](=O)[O-])c1` here?
**A.** inactive

**Q.** Which Potency does the source give for `Cc1ccc(N2C(=O)C(Cl)=C(N3CCN(C)CC3)C2=O)c(C)c1` here?
**A.** inactive

Source: PubChem BioAssay AID485353 (National Center for Advancing Translational Sciences (NCATS), 2010)
